These results are taken from paper PMC7987952.

Sequences of proteins named here, by UniProt entry; tags and fusion partners are left off.
UniProt O14771: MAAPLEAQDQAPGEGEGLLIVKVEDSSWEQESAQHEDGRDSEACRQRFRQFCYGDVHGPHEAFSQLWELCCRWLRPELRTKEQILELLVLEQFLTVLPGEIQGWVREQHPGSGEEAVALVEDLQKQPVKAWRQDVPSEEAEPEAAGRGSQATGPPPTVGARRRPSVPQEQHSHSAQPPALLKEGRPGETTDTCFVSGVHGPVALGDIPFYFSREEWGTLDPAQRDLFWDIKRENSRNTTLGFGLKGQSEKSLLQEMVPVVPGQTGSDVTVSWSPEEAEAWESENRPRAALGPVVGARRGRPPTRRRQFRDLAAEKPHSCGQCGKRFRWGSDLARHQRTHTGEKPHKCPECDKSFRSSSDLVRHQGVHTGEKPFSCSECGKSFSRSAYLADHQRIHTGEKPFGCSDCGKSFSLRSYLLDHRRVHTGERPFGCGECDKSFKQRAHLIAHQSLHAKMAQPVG
UniProt P03372: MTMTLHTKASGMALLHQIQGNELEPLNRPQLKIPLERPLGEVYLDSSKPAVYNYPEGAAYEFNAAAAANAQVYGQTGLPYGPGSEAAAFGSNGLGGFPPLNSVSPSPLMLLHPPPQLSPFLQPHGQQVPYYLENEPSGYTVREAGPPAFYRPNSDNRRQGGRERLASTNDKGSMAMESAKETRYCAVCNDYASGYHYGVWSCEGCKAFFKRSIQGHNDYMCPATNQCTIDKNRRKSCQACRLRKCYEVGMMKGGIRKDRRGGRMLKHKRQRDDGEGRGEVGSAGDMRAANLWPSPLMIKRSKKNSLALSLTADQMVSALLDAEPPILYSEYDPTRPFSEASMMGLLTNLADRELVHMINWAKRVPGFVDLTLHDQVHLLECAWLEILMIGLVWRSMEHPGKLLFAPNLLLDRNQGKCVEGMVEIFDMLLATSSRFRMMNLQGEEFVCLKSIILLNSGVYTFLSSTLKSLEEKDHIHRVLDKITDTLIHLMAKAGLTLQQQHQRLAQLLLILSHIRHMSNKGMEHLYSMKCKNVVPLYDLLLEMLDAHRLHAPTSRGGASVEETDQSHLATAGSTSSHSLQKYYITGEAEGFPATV

These are yes or no findings as the source states them, for the method shown. In cells and extracts the contact can be indirect. Some results given as binding are weak or reduced against the parent protein; the word gives no strength.

Assay [1] deals with GFP-ZNF213 full length (UniProt O14771). Kind of assay: co-IP; HEK293 cells transfected with GFP-ZNF213 (full length or deletion domains) and ER alpha plasmid (full length or deletion domains); lysates pre-cleared with IgG, immunoprecipitated with GFP antibody, western blot; rabbit IgG as negative control.
In assay [2] the target is Estrogen receptor alpha (endogenous, MCF-7) (human (endogenous in MCF-7)) (UniProt P03372). Description: co-IP; endogenous proteins; MCF-7 total cell lysate (RIPA lysis buffer) pre-cleared with rabbit IgG, immunoprecipitated with ER alpha antibody overnight, blotted with anti-ZNF213; rabbit IgG as negative control.

As for “ER alpha full length (transfected) (from UniProt P03372 1-595)”, the binding entry in assay [1] was “binds”. Consider “Zinc finger protein 213 (endogenous, MCF-7) (from UniProt O14771 1-459)”, for which, in assay [2], the binding entry is recorded as “binds”.
